Laboratory results: patent publication US20230414629A1, “MATERIALS AND METHODS OF TREATING CANCER” (MONOPTEROS THERAPEUTICS, INC., priority 2020, published 2023)

Experiment: pKa
Assay type: physicochemical

pKa: < 5
SMILES: CO[C@@H](C)c1c(NC(=O)Nc2ccnc(C(F)(F)F)c2)cnc2cc(Cl)nn12 [MLT-943]
